Measurements reported in patent publication US20110223216A1, “Nanoparticles and Porous Particles and Methods of Making the Same” (WAYNE STATE UNIVERSITY, priority 2008, published 2011).
For at least one compound, name, drawing or mass did not settle the structure.

Assay: Aerosol properties by Andersen Cascade Impactor (ACI)
Assay type: physicochemical
Details: with nanoparticles, compared to formulation containing solely micronized drug

SMILES: CCCC1O[C@@H]2C[C@H]3[C@@H]4CCC5=CC(=O)C=C[C@]5(C)[C@H]4[C@@H](O)C[C@]3(C)[C@]2(C(=O)CO)O1 (stereo partly shown) [budesonide]
- increase of fine particle fraction delivered to the deep lungs: 20%
